Data on 2 substances can be found in paper PMC5561080, “The Gαi-GIV binding interface is a druggable protein-protein interaction” (Scientific Reports, 2017).

The chains behind the UniProt entries cited, without tags or fusion partners.
UniProt P08753: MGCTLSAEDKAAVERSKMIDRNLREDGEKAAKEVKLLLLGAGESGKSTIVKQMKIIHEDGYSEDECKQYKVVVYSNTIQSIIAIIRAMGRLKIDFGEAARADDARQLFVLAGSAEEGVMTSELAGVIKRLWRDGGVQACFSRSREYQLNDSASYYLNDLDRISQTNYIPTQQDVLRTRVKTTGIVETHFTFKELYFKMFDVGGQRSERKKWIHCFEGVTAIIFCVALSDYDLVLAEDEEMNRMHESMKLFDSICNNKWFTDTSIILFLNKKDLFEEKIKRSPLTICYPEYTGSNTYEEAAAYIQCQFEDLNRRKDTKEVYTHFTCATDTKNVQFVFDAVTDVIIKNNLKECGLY

The target of one assay is Gαi3-FLAG (UniProt P08753). As to the kind of experiment: co-IP; lysates of HEK293T cells transfected with Gαi3-FLAG and full-length GIV; anti-FLAG IgG and protein G agarose, 4 °C; NF023 0–100 µM added to the lysates; immunoblots for FLAG, GIV and pan-Gβ. For orientation: Immunoblotting shows a protein as a band on a membrane.
Assay [1] has as its target T1, human His-GIV-CT (1660–1870) (human, UniProt Q3V6T2-3 1660-1870).
T1 construct: also called His-tagged GIV 1660–1870; source: E. coli BL21(DE3), purified (HisPur Cobalt resin, dialysed against PBS)
T1 sequence (looked up): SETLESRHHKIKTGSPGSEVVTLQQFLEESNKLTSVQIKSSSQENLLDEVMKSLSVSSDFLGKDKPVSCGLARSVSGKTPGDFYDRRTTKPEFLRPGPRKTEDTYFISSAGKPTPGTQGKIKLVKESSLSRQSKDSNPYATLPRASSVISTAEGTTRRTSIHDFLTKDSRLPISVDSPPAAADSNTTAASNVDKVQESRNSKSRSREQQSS
Briefly: condition: only with GDP + AlF4− (30 µM AlCl3, 10 mM NaF); AlphaScreen or HTRF; 75 nM His-GIV-CT and 75 nM GST-Gαi3 on beads in buffer with GDP + AlF4− (30 µM AlCl3, 10 mM NaF); both purified. (Alpha assays give light when donor and acceptor beads are brought close together.)

These are yes or no findings as the source states them, for the method shown. For some assays here: In cells and extracts the contact can be indirect. Some entries that bind do so weakly or less than the wild type. For some assays here: Where a sequence is shown, tags or fusion partners need not be part of it.

On to “full-length GIV (from UniProt Q3V6T2-3 1-1870)”, for which, in the assay with Gαi3-FLAG, the binding result is “binds”.

For the substance “rat GST-Gαi3 (from UniProt P08753 1-354)”, the binding result in assay [1] is reported as “no binding”.
